Data on 24 compounds can be found in PubChem BioAssay AID248 (DTP/NCI, 2004).

The list does not hold the whole screen: it is rich in T/C values a quarter to a half above the control, in often repeated tests (any T/C) and in doses without a T/C. Further doses and runs are listed elsewhere. T/C gives the treated animals as a percentage of the vehicle group. Some doses have a count of surviving animals in place of a T/C: the source files T/C as zero there, which appears to mark a toxic dose or a test without result, not a measured value. Some doses without a T/C left all or most animals alive at the check, yet need not have been tolerated: the source hardly ever lists a survival T/C far under the control, and the zero likely stands for such cases as well. Counts of survivors are from the toxicity check (mostly the fifth day) where no day follows; animals may have died later. Schedule codes are those of the source, read here as Q, the interval in days (D) or hours (H), X, the number of doses. Where survival is the endpoint, the PubChem record calls one and a half times the control and up active, and a quarter to a half above the control has no call in these data; cut-offs in other NCI protocols can differ. Some entries were tested several times; their values stand side by side, smallest first. Additions like (4×) count equal records among those shown. Some schedule codes hold Z or #, which are not explained here.

For this experiment, the system named is L1210 leukemia ip in BDF1 mice, survival T/C. Description: NCI In Vivo Anticancer Drug Screen. Data for tumor model L1210 Leukemia (intraperitoneal) in B6D2F1 (BDF1) mice. The conditions noted are these: higher T/C = longer survival.
Setting [1] is: T/C endpoint: mean survival time, dose: 400.0 mg/kg/injection, schedule: Q04DX003 (ip), vehicle: saline with Tween-80.
The mark [2] stands for this setting: T/C endpoint: mean survival time, dose: 200.0 mg/kg/injection, schedule: Q04DX002 (ip), vehicle: saline with Tween-80.
Where [3] appears, read: T/C endpoint: mean survival time, dose: 400.0 mg/kg/injection, schedule: Q04DX002 (ip), vehicle: saline with Tween-80.
Setting [4] is: T/C endpoint: mean survival time, dose: 400.0 mg/kg/injection, schedule: Q01DX001 (ip), vehicle: carboxymethylcellulose (CMC).
Where [5] appears, read: T/C endpoint: mean survival time, dose: 200.0 mg/kg/injection, schedule: Q01DX001 (ip), vehicle: saline.
Setting [6] is: T/C endpoint: mean survival time, dose: 400.0 mg/kg/injection, schedule: Q01DX001 (ip), vehicle: saline.

Take `Nc1ncnc2[nH]ncc12`: the T/C is, setting by setting: (T/C endpoint: mean survival time, dose: 12.0 mg/kg/injection, schedule: Q02DX010 (ip), vehicle: carboxymethylcellulose (CMC)) 104, 105 (2×), 117, 120, 121 % of control; (T/C endpoint: mean survival time, dose: 18.76 mg/kg/injection, schedule: Q02DX010 (ip), vehicle: carboxymethylcellulose (CMC)) 93, 105, 113, 121, 130, 138 % of control; (T/C endpoint: mean survival time, dose: 28.0 mg/kg/injection, schedule: Q02DX010 (ip), vehicle: carboxymethylcellulose (CMC)) 110 (2×), 111, 112, 136, 142 % of control; (T/C endpoint: mean survival time, dose: 42.0 mg/kg/injection, schedule: Q02DX010 (ip), vehicle: carboxymethylcellulose (CMC)) 102, 113, 115, 120, 128, 132 % of control; (T/C endpoint: mean survival time, dose: 63.0 mg/kg/injection, schedule: Q02DX010 (ip), vehicle: carboxymethylcellulose (CMC)) 104, 113, 115 (2×), 134, 144 % of control; (T/C endpoint: median survival time, dose: 12.0 mg/kg/injection, schedule: Q01DX009 (ip), vehicle: saline) 127 % of control. Also, the survivor count (T/C endpoint: mean survival time, dose: 50.0 mg/kg/injection, schedule: Q01DX009 (ip), vehicle: saline) is recorded as 6 of 6; the survivor count (T/C endpoint: mean survival time, dose: 100.0 mg/kg/injection, schedule: Q01DX009 (ip), vehicle: saline) is 6 of 6; the survivor count (T/C endpoint: mean survival time, dose: 200.0 mg/kg/injection, schedule: Q01DX009 (ip), vehicle: saline) was 1 of 6; the survivor count (T/C endpoint: mean survival time, dose: 273.0 mg/kg/injection, schedule: Q01DX001 (ip), vehicle: carboxymethylcellulose (CMC)) is listed as 3 of 6; the survivor count (T/C endpoint: mean survival time, dose: 400.0 mg/kg/injection, schedule: Q01DX009 (ip), vehicle: saline) is 0 of 6; the survivor count (T/C endpoint: mean survival time, dose: 410.0 mg/kg/injection, schedule: Q01DX001 (ip), vehicle: carboxymethylcellulose (CMC)) was 0 of 6.
Take `CC(=O)N(C1=C(Cl)C(=O)c2ccccc2C1=O)c1ccc(Cl)cc1`: under “T/C endpoint: mean survival time, dose: 300.0 mg/kg/injection, schedule: Q01DX001 (ip), vehicle: carboxymethylcellulose (CMC)”, the survivor count was 0 of 6.
Turning to `CC1CCCC(C)N1` (centres undefined), the survivor count (T/C endpoint: mean survival time, dose: 400.0 mg/kg/injection, schedule: Q04DX003 (ip), vehicle: saline) is listed as 6 of 6.
On to `CCCN=C(N)c1ccc(N=C(N)c2ccc(N=C(N)c3ccc(C(N)=NCCC)cc3)cc2)cc1`, for which the T/C (T/C endpoint: mean survival time, dose: 7.5 mg/kg/injection, schedule: Q01DX Z (ip), vehicle: carboxymethylcellulose (CMC)) was 138 % of control and the T/C (T/C endpoint: mean survival time, dose: 20.0 mg/kg/injection, schedule: Q01DX Z (ip), vehicle: carboxymethylcellulose (CMC)) was 140 % of control.
On to `Cc1ccc(N=Cc2cc(Cl)ccc2O)cc1.Cc1ccc(N=Cc2cc(Cl)ccc2O)cc1.[Co]`, for which the survivor count reads like this: (T/C endpoint: mean survival time, dose: 50.0 mg/kg/injection, schedule: Q04DX003 (ip), vehicle: saline with Tween-80) 3 of 3; (T/C endpoint: mean survival time, dose: 200.0 mg/kg/injection, schedule: Q04DX003 (ip), vehicle: saline with Tween-80) 1 of 3; under setting [1], 0 of 3.
With `O=S1(=O)CCCCC1C(O)(c1ccccc1)c1ccccc1` (centres undefined), the survivor count was 2 of 3 (T/C endpoint: mean survival time, dose: 100.0 mg/kg/injection, schedule: Q04DX002 (ip), vehicle: saline with Tween-80); 0 of 3 under setting [2]; 0 of 3 under setting [3].
On to `Nc1ncnc(N)n1`, for which the survivor count under setting [4] is 1 of 4.
For `CCCCSP(=O)(c1ccccc1)N1CCCCC1` (centres undefined), the survivor count is recorded as 0 of 3 under setting [2] and 0 of 3 under setting [3].
For the compound `C[n+]1cccc(C(=O)O)c1`, the survivor count under setting [4] was 2 of 4.
With `NC(=S)N/N=C1\CC(c2ccccc2)Oc2ccccc21` (centres undefined), the survivor count by setting is: under setting [5], 1 of 6; under setting [6], 0 of 6.
In the case of `N#C[S-].N#C[S-].N#C[S-].N#C[S-].[Co]`, the survivor count (T/C endpoint: mean survival time, dose: 40.0 mg/kg/injection, schedule: Q01DX001 (ip), vehicle: saline) was 0 of 6 and the survivor count (T/C endpoint: mean survival time, dose: 80.0 mg/kg/injection, schedule: Q01DX001 (ip), vehicle: saline) is on record as 0 of 6.
For the compound `N#Cc1nc(N)c(NC2(O)C(=O)Nc3ccccc32)nc1C#N` (centres undefined), the survivor count (T/C endpoint: mean survival time, dose: 400.0 mg/kg/injection, schedule: Q04DX002 (ip), vehicle: Klucel (hydroxypropylcellulose) (HPC)) is reported as 0 of 3.
Turning to `CN(NC(=O)CC(=O)NN(C)C(=S)c1ccccc1)C(=S)c1ccccc1`, the survivor count is, setting by setting: (T/C endpoint: mean survival time, dose: 200.0 mg/kg/injection, schedule: Q01DX009 (ip), vehicle: gum acacia) 6 of 6; (T/C endpoint: mean survival time, dose: 400.0 mg/kg/injection, schedule: Q01DX009 (ip), vehicle: gum acacia) 0 of 6.
As for `Cc1c2ccccc2c(C)c2c1cc(C(=O)O)c1ccccc12`, where the note is “T/C endpoint: mean survival time, dose: 100.0 mg/kg/injection, schedule: Q04DX002 (ip), vehicle: Klucel (hydroxypropylcellulose) (HPC)”, the T/C is 134 % of control.
In the case of `c1ccc(NC23CC4CC(CC(C4)C2)C3)cc1`, the survivor count under setting [1] was 2 of 6.
For `CN1CC2C3C=CC(C3)C2C1` (centres undefined), under “T/C endpoint: mean survival time, dose: 300.0 mg/kg/injection, schedule: Q01DX001 (ip), vehicle: other”, the survivor count is given as 0 of 6.
As to `CCCCCCCCCCCCCCCCCC(=O)NCNC(=O)CCCCCCCCCCCCCCCCC`, the survivor count (T/C endpoint: mean survival time, dose: 75.0 mg/kg/injection, schedule: Q01DX009 (ip), vehicle: saline with Tween-80) is listed as 6 of 6 and the survivor count (T/C endpoint: mean survival time, dose: 150.0 mg/kg/injection, schedule: Q01DX009 (ip), vehicle: saline with Tween-80) is 6 of 6.
Regarding `CCCCN(CCCC)c1ccc(/C=C/c2ccnc3ccccc23)cc1`, the survivor count under setting [4] is on record as 6 of 6.
As for `CC(C)(C)OC(=O)NC(CC(=O)OCc1ccccc1)C(=O)O` (centres undefined), the survivor count is reported as 6 of 6 (T/C endpoint: mean survival time, dose: 200.0 mg/kg/injection, schedule: Q01DX009 (ip), vehicle: Klucel (hydroxypropylcellulose) (HPC)) and 6 of 6 (T/C endpoint: mean survival time, dose: 400.0 mg/kg/injection, schedule: Q01DX009 (ip), vehicle: Klucel (hydroxypropylcellulose) (HPC)).
For `CCCCCCCCC/C=C(\CCCCCCCCCC)c1cc(C)ccc1C`, the survivor count (T/C endpoint: mean survival time, dose: 25.0 mg/kg/injection, schedule: Q04DX002 (ip), vehicle: saline with Tween-80) is given as 3 of 3 and the survivor count (T/C endpoint: mean survival time, dose: 50.0 mg/kg/injection, schedule: Q04DX002 (ip), vehicle: saline with Tween-80) is on record as 3 of 3.
`Nc1nc(N)c(CCCOc2ccc(NC(=O)CBr)cc2)c(N)n1`: the survivor count was 1 of 6 (T/C endpoint: mean survival time, dose: 100.0 mg/kg/injection, schedule: Q01DX001 (ip), vehicle: Klucel (hydroxypropylcellulose) (HPC)); 0 of 6 (T/C endpoint: mean survival time, dose: 200.0 mg/kg/injection, schedule: Q01DX001 (ip), vehicle: Klucel (hydroxypropylcellulose) (HPC)); 0 of 6 (T/C endpoint: mean survival time, dose: 400.0 mg/kg/injection, schedule: Q01DX001 (ip), vehicle: Klucel (hydroxypropylcellulose) (HPC)).
On to `Brc1ccc([I+]c2ccccc2)cc1`, for which the survivor count under setting [6] is 1 of 4.
On to `O=NN(CCCl)C(=O)NCc1ccc(-c2ccc(CNC(=O)N(CCCl)N=O)cc2)cc1`, for which the T/C is, setting by setting: (T/C endpoint: mean survival time, dose: 52.0 mg/kg/injection, schedule: Q01DX001 (ip), vehicle: other) 138 % of control; (T/C endpoint: mean survival time, dose: 78.0 mg/kg/injection, schedule: Q01DX001 (ip), vehicle: other) 134 % of control; (T/C endpoint: mean survival time, dose: 118.0 mg/kg/injection, schedule: Q01DX001 (ip), vehicle: other) 145 % of control; (T/C endpoint: mean survival time, dose: 118.0 mg/kg/injection, schedule: Q01DX009 (ip), vehicle: carboxymethylcellulose (CMC)) 131 % of control; (T/C endpoint: mean survival time, dose: 177.0 mg/kg/injection, schedule: Q01DX001 (ip), vehicle: carboxymethylcellulose (CMC)) 128 % of control; (T/C endpoint: mean survival time, dose: 177.0 mg/kg/injection, schedule: Q01DX009 (ip), vehicle: carboxymethylcellulose (CMC)) 134 % of control. For the same compound, the T/C (T/C endpoint: mean survival time, dose: 266.0 mg/kg/injection, schedule: Q01DX001 (ip), vehicle: carboxymethylcellulose (CMC)) is 142 % of control; the T/C (T/C endpoint: mean survival time, dose: 266.0 mg/kg/injection, schedule: Q01DX009 (ip), vehicle: carboxymethylcellulose (CMC)) was 139 % of control; the T/C under setting [4] is 135 % of control; the T/C (T/C endpoint: mean survival time, dose: 600.0 mg/kg/injection, schedule: Q01DX001 (ip), vehicle: carboxymethylcellulose (CMC)) was 143 % of control.
With `C[n+]1cccc(CNC(=O)COc2ccc(Cl)c(Cl)c2)c1`, the survivor count by setting is: under setting [5], 3 of 6; under setting [6], 1 of 6.
